Laboratory results from paper PMC9136512.
No constants are given. Whether binding was seen depends on the method and setting. In cells and extracts the contact can be indirect. Some results given as binding are weak or reduced against the parent protein; the word gives no strength.

Biological target: T1, CDK5RAP3 (CDK5 regulatory subunit associated protein 3) (not stated (endogenous; mouse MEFs or human MCF7, cells not named for the co-IP)), Q99LM2
T1 chain: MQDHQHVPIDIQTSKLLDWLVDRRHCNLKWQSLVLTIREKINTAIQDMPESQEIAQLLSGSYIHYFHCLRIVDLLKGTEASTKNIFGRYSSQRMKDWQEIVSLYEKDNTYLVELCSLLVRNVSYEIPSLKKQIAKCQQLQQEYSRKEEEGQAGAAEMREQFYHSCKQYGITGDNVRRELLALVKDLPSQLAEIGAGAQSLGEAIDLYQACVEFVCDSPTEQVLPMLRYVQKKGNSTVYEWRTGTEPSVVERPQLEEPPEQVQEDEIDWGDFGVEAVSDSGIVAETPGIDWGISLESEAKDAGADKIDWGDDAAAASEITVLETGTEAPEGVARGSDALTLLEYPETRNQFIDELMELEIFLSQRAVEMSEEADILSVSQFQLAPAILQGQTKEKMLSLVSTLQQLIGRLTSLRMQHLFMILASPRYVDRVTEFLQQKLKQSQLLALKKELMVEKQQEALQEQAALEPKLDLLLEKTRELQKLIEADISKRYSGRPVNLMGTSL
Experiment: co-IP; anti-CDK5RAP3 antibody (IgG as control) added to the cell lysate overnight at 4°C, r-protein A/G magnetic beads 2 h at room temperature, Western blot; cells not named
Conditions: remark: other sources report otherwise

binding: binds
B1: DDRGK1, Q80WW9 1-315 (protein)
chain: MVGPWVYLVAAVLLIGLILFLTRSRGRAAAADGEPLHNEEERAGAGQVGRSLPQESEEQRTGSRPRRRRDLGSRLQAQRRAQRVAWEDGDENVGQTVIPAQEEEGIEKPAEVHPTGKIGAKKLRKLEEKQARKAQREAEEAEREERKRLESQREAEWKKEEERLRLKEEQKEEEERKAQEEQARREHEEYLKLKEAFVVEEEGVSETMTEEQSHSFLTEFINYIKKSKVVLLEDLAFQMGLRTQDAINRIQDLLTEGTLTGVIDDRGKFIYITPEELAAVANFIRQRGRVSITELAQASNSLISWGQDLPAQASA
